The target of experiment [1] is T1, human CD3 on Jurkat cells (human) (UniProt P07766+P09693). In words: flow cytometry on Jurkat cells, anti-penta-His detection. In general terms: In flow cytometry, cells or beads pass a laser one at a time.
Experiment [2] deals with T1, human CD3 on Jurkat cells (human). In words: flow cytometry on Jurkat cells, control construct titrated with 100 nM soluble VEGF, anti-penta-His Alexa Fluor 488 detection.
Experiment [3] concerns the target VEGF165 (UniProt P15692). The experiment can be described thus: ELISA: plate-bound biotinylated VEGF165, His-tagged binder titrated, anti-His-HRP detection. Background: An ELISA detects its analyte on a solid surface through an enzyme-linked reagent.
In experiment [4] the target is VEGF165 (UniProt P15692). In words: ELISA, biotinylated VEGF165 on neutravidin plate; reference binder.
In experiment [5] the target is T1, human CD3 on Jurkat cells (human). In words: flow cytometry on Jurkat cells, construct titrated without VEGF or with 100 nM or 400 nM soluble VEGF, anti-penta-His Alexa Fluor 488 detection.
The target is the same in experiment [6]. In words: flow cytometry on Jurkat cells, anti-penta-His detection, with or without VEGF (100 or 400 nM).
Experiment [7] has as its target VEGF165 (UniProt P15692). In words: ELISA, biotinylated VEGF165 on neutravidin plate, anti-His detection; residual binding of the closed form.
For experiment [8], the target named is VEGF165 (UniProt P15692). The experiment can be described thus: ELISA: plate-bound biotinylated VEGF165, His-tagged construct titrated, no soluble VEGF, anti-His-HRP detection.

Chains of the proteins cited; added tags and fusions are not shown. Lines headed by an entry give the natural chain unless they say otherwise; changes in a name come on top. A line that says so, or that is headed by a name, gives the form on record, which may keep a tag or linker.
UniProt P07766: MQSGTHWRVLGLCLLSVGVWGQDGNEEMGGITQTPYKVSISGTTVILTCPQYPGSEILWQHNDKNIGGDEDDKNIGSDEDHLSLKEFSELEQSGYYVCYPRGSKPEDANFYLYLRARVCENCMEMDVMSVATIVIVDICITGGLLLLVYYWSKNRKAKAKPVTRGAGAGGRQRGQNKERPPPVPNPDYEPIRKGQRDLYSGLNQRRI
UniProt P09693: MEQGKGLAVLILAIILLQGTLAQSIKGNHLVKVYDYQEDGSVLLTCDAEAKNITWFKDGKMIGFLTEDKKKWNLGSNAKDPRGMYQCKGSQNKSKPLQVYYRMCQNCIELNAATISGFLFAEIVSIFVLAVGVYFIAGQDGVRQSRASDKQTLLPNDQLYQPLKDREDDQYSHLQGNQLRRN
VEGF165 (P15692, form named): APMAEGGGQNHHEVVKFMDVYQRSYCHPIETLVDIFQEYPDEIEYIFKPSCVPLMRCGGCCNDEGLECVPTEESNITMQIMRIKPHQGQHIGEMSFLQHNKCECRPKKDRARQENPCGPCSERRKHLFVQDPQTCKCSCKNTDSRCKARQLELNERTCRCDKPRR

No constants are given. Whether binding was seen depends on the method and setting. Some binding calls cover weakened binding; strength is not graded here.

B1: Format B control construct ([α-VEGF binder]-[α-CD123 binder]-[α-CD3 binder]) (designed binder)
chain: MRGSHHHHHHGSDLDKKLLEAARAGQDDEVRILLKAGADVNAKDSTGWTPLHLAAPWGHPEIVEVLLKAGADVNAKDFQGWTPLHLAAAAGHLEIVEVLLKAGADVNAQDKSGKTPADLAADAGHEDIAEVLQKAAGSPTPTPTTPTPTPTTPTPTPTGSDLGKKLLQAARAGQLDEVRELLKAGADVNAKDQYGRTPLHLAAIKGHLEIVEVLLKAGADVNAKDSLGYTPLHLAAVEGPLEIVEVLLKAGADVNAKDAYGQTPLHIAAAWGHLEIVEVLLKAVADVNAQDKSGKTPADLAARAGHQDIAEVLQKAAGSPTPTPTTPTPTPTTPTPTPTGSDLGQKLLEAAWAGQDDEVRELLKAGADVNAKNSRGWTPLHTAAQTGHLEIFEVLLKAGADVNAKNDKRVTPLHLAAALGHLEIVEVLLKAGADVNARDSWGTTPADLAAKYGHQDIAEVLQKAA
Take B1: the binding result in experiment [1] and in experiment [2] was “binds” each time.

B2: VEGF-binder (SEQ ID NO: 1) (designed binder)
chain: DLDKKLLEAARAGQDDEVRILLKAGADVNAKDSTGWTPLHLAAPWGHPEIVEVLLKAGADVNAKDFQGWTPLHLAAAAGHLEIVEVLLKAGADVNAQDKSGKTPADLAADAGHEDIAEVLQKAA
As for B2, the binding entry with VEGF165 [3] and in the experiment with VEGF165 [4] was “binds” in each case.

B3: Switchdrug DARPin 17-B (designed binder)
chain: MRGSHHHHHHGSDLGKKLLQAARAGQLDEVRELLKAGADVNAKDSTGWTPLHLAAPWGHPEIVEVLLKAGADVNAKDFQGWTPLHLAAAAGHLEIVEVLLKAGADVNAKDWLGWTPLHLAASHGHLEIVEVLLKAGADVNAQDKSGKTPADLAARAGHQDIAEVLQKAAGSPTPTPTTPTPTPTTPTPTPTGSDLGKKLLQAARAGQLDEVRELLKAGADVNAKDQYGRTPLHLAAIKGHLEIVEVLLKAGADVNAKDSLGYTPLHLAAVEGPLEIVEVLLKAGADVNAKDAYGQTPLHIAAAWGHLEIVEVLLKAVADVNAQDKSGKTPADLAARAGHQDIAEVLQKAAGSPTPTPTTPTPTPTTPTPTPTGSDLGQKLLEAAWAGQDDEVRELLKAGADVNAKNSRGWTPLHTAAQTGHLEIFEVLLKAGADVNAKNDKRVTPLHLAAALGHLEIVEVLLKAGADVNARDSWGTTPADLAAKYGHQDIAEVLQKAA
B3: the binding entry (in experiment [5]; in experiment [6]; with VEGF165 [7]; in the experiment with VEGF165 [8]) was “binds” in each case.

(Values after patent US20250042957A1.)
